Experimental data from publication PMC4108065, “Inflammation and pancreatic cancer: molecular and functional interactions between S100A8, S100A9, NT-S100A8 and TGFβ1” (Cell Communication and Signaling : CCS, 2014).
Results are given in words; binding and its absence hold for the method and conditions named. Some binding calls cover weakened binding; strength is not graded here.

Amino acid sequences for entries named in this document (tags omitted). Residues count along the entry.
UniProt P01137, residues 279-390: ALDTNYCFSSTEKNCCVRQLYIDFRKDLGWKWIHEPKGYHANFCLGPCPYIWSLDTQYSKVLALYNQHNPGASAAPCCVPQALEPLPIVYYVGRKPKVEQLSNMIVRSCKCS

Key:
[1] = biological target: T1, S100A9 (UniProt P06702); experiment: co-IP; TGFβ1 (1.6 μM) incubated equimolar with S100A8 or S100A9 and equimolar CaCl2 at 37°C overnight; precipitated with anti-S100A8 or anti-S100A9 on protein G-Sepharose; washed in 10 mM Tris HCl, 40 mM NaCl, pH 7.5; blot for TGFβ1; both purified
T1 sequence: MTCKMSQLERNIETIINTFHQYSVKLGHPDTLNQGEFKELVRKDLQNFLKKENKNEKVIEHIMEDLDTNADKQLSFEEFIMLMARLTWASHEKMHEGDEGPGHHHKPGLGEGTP

[2] = biological target: T2, S100A8 (UniProt P05109); experiment: as above
T2 sequence: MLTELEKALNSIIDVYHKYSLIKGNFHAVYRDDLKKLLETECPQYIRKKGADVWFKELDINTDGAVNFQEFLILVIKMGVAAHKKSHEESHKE

[3] = biological target: T1, S100A9; experiment: MALDI-TOF/MS of mixtures (linear positive ion mode); proteins and CaCl2 mixed at equimolar concentration (11.3 μM) in aqueous solution, incubated overnight at 37°C, diluted 1/10 in 0.1% TFA, sinapinic acid matrix; both purified
[4] = biological target: T2, S100A8; experiment: as above

Measured: binding

transforming growth factor beta 1 (from UniProt P01137 279-390) (ligand)
binds: all assays above
